The list shows a part of the results.
Tests used:
Experiment in all cases: glycan array binding signal (z-score within array); higher = stronger binding
Conditions in all cases: glycan notation: IUPAC condensed, linker removed
Fuc(a1-2)Gal = target: Fuc(a1-2)Gal
How it was run: (§1)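 Negative Z-scores can be read as non-binding. The Z-score is calculated within each array and then averaged across arrays of one protein sequence at different concentrations or buffers and across linkers. Arrays, 3228 in all, were curated from the Consortium for Functional Glycomics database and kept only where the protein sequence was available.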

Fuc(a1-2)Gal(b1-3)GalNAc = target: Fuc(a1-2)Gal(b1-3)GalNAc
How it was run: as §1

[1] = target: Fuc(a1-2)Gal(b1-3)GalNAc(a1-3)[Fuc(a1-2)]Gal(b1-4)Glc
How it was run: as §1

[2] = target: Fuc(a1-2)Gal(b1-3)GalNAc(a1-3)[Fuc(a1-2)]Gal(b1-4)GlcNAc
How it was run: as §1

[3] = target: Fuc(a1-2)Gal(b1-3)GalNAc(b1-3)Gal
How it was run: as §1

[4] = target: Fuc(a1-2)Gal(b1-3)GalNAc(b1-3)Gal(a1-4)Gal(b1-4)Glc
How it was run: as §1

[5] = target: Fuc(a1-2)Gal(b1-3)GalNAc(b1-4)[Neu5Ac(a2-3)]Gal(b1-4)Glc
How it was run: as §1

Fuc(a1-2)Gal(b1-3)GlcNAc = target: Fuc(a1-2)Gal(b1-3)GlcNAc
How it was run: as §1

[6] = target: Fuc(a1-2)Gal(b1-3)GlcNAc(b1-2)Man(a1-3)[Fuc(a1-2)Gal(b1-3)GlcNAc(b1-2)Man(a1-6)]Man(b1-4)GlcNAc(b1-4)GlcNAc
How it was run: as §1

[7] = target: Fuc(a1-2)Gal(b1-3)GlcNAc(b1-2)Man(a1-3)[Fuc(a1-2)Gal(b1-3)GlcNAc(b1-2)Man(a1-6)]Man(b1-4)GlcNAc(b1-4)[Fuc(a1-6)]GlcNAc
How it was run: as §1

[8] = target: Fuc(a1-2)Gal(b1-3)GlcNAc(b1-3)Gal(b1-4)Glc
How it was run: as §1

[9] = target: Fuc(a1-2)Gal(b1-3)GlcNAc(b1-3)GalNAc
How it was run: as §1

[10] = target: Fuc(a1-2)Gal(b1-3)GlcNAc(b1-3)[Fuc(a1-2)Gal(b1-3)GlcNAc(b1-6)]GalNAc
How it was run: as §1

[11] = target: Fuc(a1-2)Gal(b1-3)GlcNAc(b1-3)[Gal(b1-4)GlcNAc(b1-6)]Gal(b1-4)Glc
How it was run: as §1

[12] = target: Fuc(a1-2)Gal(b1-3)GlcNAc(b1-3)[Neu5Ac(a2-6)Gal(b1-4)GlcNAc(b1-6)]Gal(b1-4)Glc
How it was run: as §1

[13] = target: Fuc(a1-2)Gal(b1-3)GlcNAc6S
How it was run: as §1

[14] = target: Fuc(a1-2)Gal(b1-3)[Fuc(a1-4)]GlcNAc
How it was run: as §1

[15] = target: Fuc(a1-2)Gal(b1-3)[Fuc(a1-4)]GlcNAc(b1-2)Man(a1-3)[Fuc(a1-2)Gal(b1-3)[Fuc(a1-4)]GlcNAc(b1-2)Man(a1-3)]Man(b1-4)GlcNAc(b1-4)GlcNAc
How it was run: as §1

[16] = target: Fuc(a1-2)Gal(b1-3)[Fuc(a1-4)]GlcNAc(b1-2)Man(a1-3)[Fuc(a1-2)Gal(b1-3)[Fuc(a1-4)]GlcNAc(b1-2)Man(a1-6)]Man(b1-4)GlcNAc(b1-4)[Fuc(a1-6)]GlcNAc(b1-4)[Fuc(a1-6)]GlcNAc
How it was run: as §1

[17] = target: Fuc(a1-2)Gal(b1-3)[Fuc(a1-4)]GlcNAc(b1-3)[Fuc(a1-3)[Gal(b1-4)]GlcNAc(b1-6)]Gal(b1-4)Glc
How it was run: as §1

[18] = target: Fuc(a1-2)Gal(b1-3)[Fuc(a1-4)]GlcNAc(b1-3)[Gal(b1-4)GlcNAc(b1-6)]Gal(b1-4)Glc
How it was run: as §1

Fuc(a1-2)Gal(b1-4)Glc = target: Fuc(a1-2)Gal(b1-4)Glc
How it was run: as §1

Fuc(a1-2)Gal(b1-4)Glc6S = target: Fuc(a1-2)Gal(b1-4)Glc6S
How it was run: as §1

Fuc(a1-2)Gal(b1-4)GlcNAc = target: Fuc(a1-2)Gal(b1-4)GlcNAc
How it was run: as §1

[19] = target: Fuc(a1-2)Gal(b1-4)GlcNAc(b1-2)Man
How it was run: as §1

[20] = target: Fuc(a1-2)Gal(b1-4)GlcNAc(b1-2)Man(a1-3)[Fuc(a1-2)Gal(b1-4)GlcNAc(b1-2)Man(a1-6)]Man(b1-4)GlcNAc(b1-4)GlcNAc
How it was run: as §1

[21] = target: Fuc(a1-2)Gal(b1-4)GlcNAc(b1-2)Man(a1-3)[Fuc(a1-2)Gal(b1-4)GlcNAc(b1-2)Man(a1-6)]Man(b1-4)GlcNAc(b1-4)[Fuc(a1-6)]GlcNAc
How it was run: as §1

[22] = target: Fuc(a1-2)Gal(b1-4)GlcNAc(b1-2)[Fuc(a1-2)Gal(b1-4)GlcNAc(b1-4)]Man(a1-3)[Fuc(a1-2)Gal(b1-4)GlcNAc(b1-2)Man(a1-6)]Man(b1-4)GlcNAc(b1-4)GlcNAc
How it was run: as §1

[23] = target: Fuc(a1-2)Gal(b1-4)GlcNAc(b1-3)Gal(b1-4)GlcNAc
How it was run: as §1

[24] = target: Fuc(a1-2)Gal(b1-4)GlcNAc(b1-3)Gal(b1-4)GlcNAc(b1-2)Man(a1-3)[Fuc(a1-2)Gal(b1-4)GlcNAc(b1-3)Gal(b1-4)GlcNAc(b1-2)Man(a1-6)]Man(b1-4)GlcNAc(b1-4)GlcNAc
How it was run: as §1

B1: PX14343C-bfa-541-26-541 (Bacteroides fragilis) (protein)
chain: KAPLDEIADDSFWSDETLVKYYVNDLYSEISVDGLQLQENRSDNSVSAQRDKYRASWFKFNYDMVSASDPQDDDVWEDYYVKVRKCNRFFERIGTSTIEESEKSRLTGEVHFLRAMFYFEMVKRYGGVILLDKVLTMEDNWEIPRSSEKECYDFILEDLKKATEMLPASYGSREKGRATKGAAYALKSRVELYDKRYEDVIKSCAEVYKLGYELVDGTTPEKYRSIWWTTNKDNKEIIFDVQYKSPDVYNNMMVCNMVTYINDKYGDRGWGGLGPTQELIDAFEMADGTPATQYSQAPADQVFDINTCGIYEGREPRFYANIVFHGSQIFFNADKGAVTVDRYLMDTPDKGDGSLTGYNVWKWIDYDNYNYPYAGAGSPDFSTNWIILRYAEIYLNDAEARLETGDVEGARKAVNMIRQRVGLPDLTESDPEKLRELIRKERRIEFAFEEQRFYDVRRWKIGPETQTTLHGVRFVSPTEFKVTKTDIRTWNDRLYLTPVPHDEIVRSSVLKQNLGY
Fuc(a1-2)Gal
  glycan array binding signal (z-score): -0.379
Fuc(a1-2)Gal(b1-3)GalNAc
  glycan array binding signal (z-score): -0.421
[1]
  glycan array binding signal (z-score): -0.517
[2]
  glycan array binding signal (z-score): -0.217
[3]
  glycan array binding signal (z-score): -0.342
[4]
  glycan array binding signal (z-score): -0.159
[5]
  glycan array binding signal (z-score): 1.52
Fuc(a1-2)Gal(b1-3)GlcNAc
  glycan array binding signal (z-score): 0.399
[6]
  glycan array binding signal (z-score): 1.8
[7]
  glycan array binding signal (z-score): 0.448
[8]
  glycan array binding signal (z-score): -0.05
[9]
  glycan array binding signal (z-score): -0.679
[10]
  glycan array binding signal (z-score): -0.053
[11]
  glycan array binding signal (z-score): -0.066
[12]
  glycan array binding signal (z-score): -0.122
[13]
  glycan array binding signal (z-score): 0.633
[14]
  glycan array binding signal (z-score): -0.507
[15]
  glycan array binding signal (z-score): 0.062
[16]
  glycan array binding signal (z-score): 0.403
[17]
  glycan array binding signal (z-score): -0.524
[18]
  glycan array binding signal (z-score): -0.285
Fuc(a1-2)Gal(b1-4)Glc
  glycan array binding signal (z-score): -1.08
Fuc(a1-2)Gal(b1-4)Glc6S
  glycan array binding signal (z-score): 0.086
Fuc(a1-2)Gal(b1-4)GlcNAc
  glycan array binding signal (z-score): -0.892
[19]
  glycan array binding signal (z-score): -0.373
[20]
  glycan array binding signal (z-score): -0.29
[21]
  glycan array binding signal (z-score): 0.075
[22]
  glycan array binding signal (z-score): 0.146
[23]
  glycan array binding signal (z-score): 0.048
[24]
  glycan array binding signal (z-score): -0.646

Source: the supplement of paper PMC8728848
